Whole data set: some 33,000 sequences, median “E-score (-0.5 to 0.5)” near -0.0034, cut for the highest 2% near 0.25. This is one part of the list.
Each sequence was assayed against T1, Yap3 (UniProt P38749) (assay: PBM E-score (8-mer binding enrichment) (E-score (-0.5 to 0.5)); higher = stronger / more preferred TF binding). Settings: protein concentration: 100 nM; construct: GST-full length.
T1 sequence: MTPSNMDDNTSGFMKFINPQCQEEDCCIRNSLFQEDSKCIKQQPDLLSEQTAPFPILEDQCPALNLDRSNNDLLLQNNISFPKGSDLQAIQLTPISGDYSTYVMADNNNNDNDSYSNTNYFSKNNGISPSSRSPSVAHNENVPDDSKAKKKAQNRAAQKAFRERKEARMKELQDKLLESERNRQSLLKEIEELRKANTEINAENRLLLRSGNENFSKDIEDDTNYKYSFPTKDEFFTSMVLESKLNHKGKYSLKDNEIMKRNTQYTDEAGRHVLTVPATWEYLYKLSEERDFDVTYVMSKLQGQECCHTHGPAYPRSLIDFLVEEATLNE
Summary of the method: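 Yeast transcription factors carrying a GST tag, as full-length proteins or DNA-binding domains, were produced by PURExpress in vitro transcription/translation. About 100-200 nM protein was applied to universal all-10-mer Agilent arrays, double-stranded by primer extension on fresh or once-stripped slides. Bound protein was detected with fluorescent anti-GST, and scans were normalised with masliner. The Universal PBM Analysis Suite gave each ungapped eight-base word, pooled with its reverse complement, an E-score, a modified Wilcoxon-Mann-Whitney statistic.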
With CCCTTCAC the “PBM E-score” value was -0.128.
For TATCACAA, the “PBM E-score” value was 0.112.
CTTTTGTC was tested, and the “PBM E-score” value was 0.0462.
With GCACCATA the “PBM E-score” value was -0.036.
In the case of CTGCCGTA, the “PBM E-score” value is reported as -0.0472.
TAACGATA was tested, and the “PBM E-score” value was 0.261.
In the case of CGTGTCCA, the “PBM E-score” value is reported as -0.127.
In the case of GATTAAAC, the “PBM E-score” value is reported as 0.0276.
With AGAACCTG the “PBM E-score” value was -0.128.
For ATGTCGTA, the “PBM E-score” value was 0.0357.
For AGGGCGGA, the “PBM E-score” value was -0.313.
For ACCAAGTG, the “PBM E-score” value was -0.15.
For AGGGACTC, the “PBM E-score” value was -0.314.
For CAGCTCAG, the “PBM E-score” value was -0.164.
For TGATCGAA, the “PBM E-score” value was -0.0093.
In the case of GTCGGCGA, the “PBM E-score” value is reported as -0.157.
With TATGCCGA the “PBM E-score” value was 0.0214.
ATATTTCC was tested, and the “PBM E-score” value was 0.0744.
CCTGTCCC was tested, and the “PBM E-score” value was -0.192.
AATGGTGT was tested, and the “PBM E-score” value was 0.175.
AGTGCGAA was tested, and the “PBM E-score” value was -0.0603.
In the case of CTAGCCAA, the “PBM E-score” value is reported as 0.0121.
ATCCCTCA was tested, and the “PBM E-score” value was -0.172.
For AATACTCT, the “PBM E-score” value was 0.223.
With CATTTGCG the “PBM E-score” value was -0.00392.
For GCTCATTA, the “PBM E-score” value was 0.0889.
GTTGGAAA was tested, and the “PBM E-score” value was -0.00535.
With ATTACGGC the “PBM E-score” value was 0.241.
With TACGTTAA the “PBM E-score” value was 0.195.
In the case of AGAATCTC, the “PBM E-score” value is reported as -0.179.
For CGTACCCA, the “PBM E-score” value was 0.0701.
In the case of ATAATTTA, the “PBM E-score” value is reported as 0.303.
In the case of AGAAGACT, the “PBM E-score” value is reported as -0.0743.
In the case of ACGTCCAG, the “PBM E-score” value is reported as -0.194.
GAGCCCTC was tested, and the “PBM E-score” value was -0.24.
With CTTCAAGC the “PBM E-score” value was -0.172.
For GTGCTATA, the “PBM E-score” value was 0.189.
In the case of GGGTTCCA, the “PBM E-score” value is reported as -0.221.
For ACTGCAGG, the “PBM E-score” value was -0.213.
With CGACCGTA the “PBM E-score” value was -0.0633.
CCACCCGA was tested, and the “PBM E-score” value was 0.0551.
With ACGATTGA the “PBM E-score” value was -0.0216.
For CAGAGTTA, the “PBM E-score” value was -0.0557.
For AAACAGAG, the “PBM E-score” value was 0.0343.
With ATACCTTG the “PBM E-score” value was 0.0786.
In the case of ATAGGAAC, the “PBM E-score” value is reported as 0.126.
With GGTATACA the “PBM E-score” value was 0.00445.
For CCGGCCCG, the “PBM E-score” value was -0.303.
For AGGCATAT, the “PBM E-score” value was 0.0305.
For AAAACCAT, the “PBM E-score” value was 0.174.
In the case of AGATGTGC, the “PBM E-score” value is reported as 0.11.
For CGGTGGCA, the “PBM E-score” value was -0.289.
For TTATTGAA, the “PBM E-score” value was 0.183.
AATAGGTA was tested, and the “PBM E-score” value was 0.14.
For AAGTTCTA, the “PBM E-score” value was 0.0351.
For CGACCTTA, the “PBM E-score” value was 0.0354.
With CCGCCTCC the “PBM E-score” value was -0.231.
For GCACCACA, the “PBM E-score” value was -0.0944.
For TAACGAGA, the “PBM E-score” value was 0.195.
In the case of AGCACCAG, the “PBM E-score” value is reported as -0.078.
CATTGAAA was tested, and the “PBM E-score” value was 0.229.
CCCATGGA was tested, and the “PBM E-score” value was -0.0692.
In the case of ACCTGCAA, the “PBM E-score” value is reported as -0.125.
With CAATTCTA the “PBM E-score” value was 0.113.
With CGCCAAGA the “PBM E-score” value was -0.284.
ATACATGA was tested, and the “PBM E-score” value was 0.113.
In the case of GCCGCTAA, the “PBM E-score” value is reported as -0.0267.
ATTCATGG was tested, and the “PBM E-score” value was -0.0129.
AGCTGTAC was tested, and the “PBM E-score” value was -0.0794.
AAAGGGAG was tested, and the “PBM E-score” value was -0.216.
In the case of CTATTGTA, the “PBM E-score” value is reported as 0.16.
In the case of GCCGGCAA, the “PBM E-score” value is reported as 0.0311.
In the case of ACCTAGGA, the “PBM E-score” value is reported as 0.0583.
With GAGTCACC the “PBM E-score” value was -0.196.
With CGCTTGTA the “PBM E-score” value was 0.178.
With TCATCTCA the “PBM E-score” value was 0.249.
CCGATGTC was tested, and the “PBM E-score” value was 0.0178.
For CAGCTAAC, the “PBM E-score” value was -0.146.
With ACGCCAGG the “PBM E-score” value was -0.13.
AACTTACT was tested, and the “PBM E-score” value was -0.0275.
GGAATGCC was tested, and the “PBM E-score” value was -0.107.
For ACACTGGG, the “PBM E-score” value was -0.12.
ATATCTTA was tested, and the “PBM E-score” value was 0.201.
CATGGAAC was tested, and the “PBM E-score” value was -0.0425.
In the case of CTTCTAGC, the “PBM E-score” value is reported as -0.249.
In the case of GGATGAAA, the “PBM E-score” value is reported as 0.214.
In the case of CCACTGCC, the “PBM E-score” value is reported as -0.0514.
CTCAAGAA was tested, and the “PBM E-score” value was -0.036.
ATCTTAGC was tested, and the “PBM E-score” value was -0.103.
AGAAGTGA was tested, and the “PBM E-score” value was -0.0627.
With ACAAAAAT the “PBM E-score” value was 0.298.
With AACACCAT the “PBM E-score” value was 0.169.
For ACTACTCG, the “PBM E-score” value was 0.115.
With GATAGCGC the “PBM E-score” value was -0.0561.
In the case of AGATGGCC, the “PBM E-score” value is reported as -0.161.
For CCGAAGGC, the “PBM E-score” value was -0.309.
In the case of GCATTAAA, the “PBM E-score” value is reported as 0.177.
AACGCAAA was tested, and the “PBM E-score” value was 0.0912.
In the case of ATAACGCG, the “PBM E-score” value is reported as 0.107.
With CGGCGTAC the “PBM E-score” value was -0.15.
In the case of ACGCAAGC, the “PBM E-score” value is reported as 0.0328.
With TCTTCTAA the “PBM E-score” value was 0.0237.
In the case of CATAGTCC, the “PBM E-score” value is reported as -0.0721.
GATCTGCA was tested, and the “PBM E-score” value was -0.145.
For TAATTTAA, the “PBM E-score” value was 0.178.
For AGAACCAT, the “PBM E-score” value was 0.165.
In the case of GGTCATTA, the “PBM E-score” value is reported as 0.088.
In the case of AACATATT, the “PBM E-score” value is reported as 0.213.
With ACCCGCAG the “PBM E-score” value was -0.0808.
In the case of AAACCTAC, the “PBM E-score” value is reported as 0.244.
CACCGTGA was tested, and the “PBM E-score” value was -0.0612.
In the case of ACGCCGCT, the “PBM E-score” value is reported as 0.00458.
For ATGATCAC, the “PBM E-score” value was 0.159.
In the case of ACTAAGGG, the “PBM E-score” value is reported as -0.00212.
For AGAGTACC, the “PBM E-score” value was 0.0203.
AAGCCGCC was tested, and the “PBM E-score” value was -0.181.
For AGCAGTTA, the “PBM E-score” value was -0.0217.
CTTCTCTA was tested, and the “PBM E-score” value was -0.105.
With AATACCTC the “PBM E-score” value was 0.101.
For ATTTAGGG, the “PBM E-score” value was -0.0356.
AGAATAGA was tested, and the “PBM E-score” value was 0.0892.
With ACCAGCAT the “PBM E-score” value was 0.116.
In the case of AGGATACT, the “PBM E-score” value is reported as -0.0431.
For ACGCATTA, the “PBM E-score” value was 0.073.
In the case of CGGATGTC, the “PBM E-score” value is reported as -0.134.
ACGGAAGT was tested, and the “PBM E-score” value was 0.126.
With AGAGGGCT the “PBM E-score” value was -0.204.
For ATGCCATA, the “PBM E-score” value was 0.115.
AACGTTCT was tested, and the “PBM E-score” value was 0.0965.
With ACATCAGG the “PBM E-score” value was 0.0288.
For CCGTCACC, the “PBM E-score” value was -0.216.
GATCGGCA was tested, and the “PBM E-score” value was -0.0139.
In the case of AAAAAAGC, the “PBM E-score” value is reported as 0.145.
With CCGATGGC the “PBM E-score” value was -0.0597.
In the case of CACTATCC, the “PBM E-score” value is reported as 0.0794.
In the case of GCTGAATA, the “PBM E-score” value is reported as 0.199.
AATGGTCA was tested, and the “PBM E-score” value was 0.26.
In the case of TCGACAGA, the “PBM E-score” value is reported as -0.041.
CGCGACCC was tested, and the “PBM E-score” value was -0.22.
With TGCTAAAA the “PBM E-score” value was 0.0161.
CAATTCTG was tested, and the “PBM E-score” value was 0.0762.
In the case of AACCCTGT, the “PBM E-score” value is reported as -0.12.
For GTGTGAAC, the “PBM E-score” value was 0.0569.
For TGGGCACA, the “PBM E-score” value was -0.0818.
ATGGGCAA was tested, and the “PBM E-score” value was 0.0969.
For ACTTGCAA, the “PBM E-score” value was 0.069.
In the case of AAGGTAAC, the “PBM E-score” value is reported as 0.121.
With TCAGTTCA the “PBM E-score” value was 0.179.
In the case of ATTGTTTG, the “PBM E-score” value is reported as 0.176.
In the case of TAGATCGA, the “PBM E-score” value is reported as 0.123.
With GGGAGAAC the “PBM E-score” value was -0.201.
With GATTGCTA the “PBM E-score” value was -0.062.
With AGCCCTTG the “PBM E-score” value was -0.0902.
In the case of ACGGATTC, the “PBM E-score” value is reported as 0.0415.
TATGCGGA was tested, and the “PBM E-score” value was 0.0888.
For GTATTTCA, the “PBM E-score” value was 0.123.
CAGGGACA was tested, and the “PBM E-score” value was -0.0295.
With AGCTCGGA the “PBM E-score” value was -0.113.
In the case of CGCACGCA, the “PBM E-score” value is reported as 0.0495.
CCTACTTA was tested, and the “PBM E-score” value was 0.0606.
ACAGACAA was tested, and the “PBM E-score” value was 0.285.
With GCTGGCCA the “PBM E-score” value was -0.15.
With ATCTACAG the “PBM E-score” value was 0.105.
With CAATGTGA the “PBM E-score” value was 0.181.
For GAGCTCAC, the “PBM E-score” value was -0.0761.
For AAGTCTCT, the “PBM E-score” value was -0.228.
For AGACGGGC, the “PBM E-score” value was -0.0414.
With AAATATCG the “PBM E-score” value was 0.188.
In the case of CGCTGGGA, the “PBM E-score” value is reported as -0.24.
For ACCATCCT, the “PBM E-score” value was -0.0941.
For ACCAAGGT, the “PBM E-score” value was -0.0316.
For TCTGTAAA, the “PBM E-score” value was 0.0633.
